# Source: the supplement of paper PMC10338343
# ± gives the standard deviation. Only a part is listed here, and it is no random draw. Many entries were measured with a wide error.
# Test system: MILI (PIWIL2) piRISC loaded with Kctd7 piRNA (26 nt)
# Test: pre-steady-state target cleavage rate (min^-1); MIWI and MILI are mouse PIWI proteins and EfPiwi is from a freshwater sponge; tags in brackets are library labels; higher = faster piRNA-guided slicing of the target
# Conditions: guide: Kctd7 piRNA 5'p-UGUUAAUCUCUCAGAGAAGGUGACAG; auxiliary factor: 500 nM mouse GTSF1
# Method: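 Cleave-'n-Seq: a library of target RNAs (target site embedded in constant flanks, ACAGCATTCCGCGTTAGTGATATCCG... 5' flank; DNA-blocked outside the site) at 0.1 nM was incubated with 1 nM active mouse MILI or MIWI piRISC (synthetic 5'-monophosphorylated piRNA guide) with or without 500 nM mouse GTSF1 at 33 °C for 1 min to 16 h. Uncleaved targets were sequenced and normalised to non-target controls, and the pooled three trials were fitted to a burst-and-steady-state model to give the pre-steady-state cleavage rate (min^-1; k3 is constrained to at most 1e-4). Sequence is the target site only; target names encode pairing extent (gX:gY) and contiguous / 1-mismatch / 2-mismatch / bulge geometry. Fits with R² ≤ 0 are excluded.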
row,Sequence,pre-steady-state target cleavage rate
1,UAGUCUGUCACCUUCUCAGAGUGAUUAACA,0.00411 ± 0.0045
2,UAGUGACAGUGGAUGUCUGAGAGAUUAACA,0.000991 ± 0.0031
3,UAGUGACAGUCCUUCUCUGAGAGAAUAUCA,0.000243 ± 0.02
4,UAGUGAGUCACCUUCUCUGUCUGAUUAAGA,0.00143 ± 0.012
5,UAGUGUGUCUCCUUCUCUGAGACAUUAACA,0.00482 ± 0.0038
6,UAGUGAGUCACCUUCUCUGAGAGACUUAACA,0.137 ± 0.032
7,UAGUCUGUCUCCUUCUCUGAGUGAUUAACA,0.00144 ± 0.0043
8,UAGUCUGUCACCAACUCUGAGAGAUAUUGA,0.000437 ± 0.0074
9,UAGUGACAGUGGAAGAGAGACACAUUAACA,0.000261 ± 0.029
10,UAGUGACAGUGCUUCUCAGAGAGUUUAACA,0.00211 ± 0.0054
11,UAGUGAGUCACCUUCUCUGAGACUAUAUGA,0.00135 ± 0.0086
12,UAGUGACUCACGUUCUCUGAGAGAUAUUGA,0.000101 ± 0.031
13,UAGUGACAGUGGUUCUCUGAGAGAUUAGACA,0.000791 ± 0.0076
14,UAGUGACAGUCCUUCUCGUGAGAGAUUAACA,0.000837 ± 0.009
15,UAGUGACUCACCUUCUCUGACUCAUUAACA,0.00102 ± 0.009
16,UAGUCUGUGUCCUUCUCUGAGAGAUUUUGA,0.00127 ± 0.0056
17,UAGUGUGUCAGGUUCUCUGAGAGAUUUUGA,0.00129 ± 0.01
18,UAGUGAGUCACCUUCAGUGAGAGAUUUUGA,0.00533 ± 0.0054
19,UAGUGACAGUGGAAGAGUGAGACAUAAACA,0.000203 ± 0.029
20,UAGUGACAGACGAUCUCUGAGAGAUUAUGA,0.000522 ± 0.013
21,UAGUGACAGACCUUCUGAGAGAGAUUUUGA,0.000539 ± 0.016
22,UAGUGACAGUCCUUCUCUGAGUGAAUAACA,0.000155 ± 0.016
23,UAGUGACUCACCUUCUCUGAGUGAUUUUGA,0.000532 ± 0.016
24,UAGUGACAGUGGAACUCUGAGACAUUAUCA,0.00127 ± 0.015

# Given tab-delimited: entries from further up
row	Sequence	pre-steady-state target cleavage rate
11	UAGUGAGUCACCUUCUCUGAGACUAUAUGA	0.00135 ± 0.0086
12	UAGUGACUCACGUUCUCUGAGAGAUAUUGA	0.000101 ± 0.031
13	UAGUGACAGUGGUUCUCUGAGAGAUUAGACA	0.000791 ± 0.0076
14	UAGUGACAGUCCUUCUCGUGAGAGAUUAACA	0.000837 ± 0.009
15	UAGUGACUCACCUUCUCUGACUCAUUAACA	0.00102 ± 0.009
16	UAGUCUGUGUCCUUCUCUGAGAGAUUUUGA	0.00127 ± 0.0056
17	UAGUGUGUCAGGUUCUCUGAGAGAUUUUGA	0.00129 ± 0.01
18	UAGUGAGUCACCUUCAGUGAGAGAUUUUGA	0.00533 ± 0.0054
19	UAGUGACAGUGGAAGAGUGAGACAUAAACA	0.000203 ± 0.029
20	UAGUGACAGACGAUCUCUGAGAGAUUAUGA	0.000522 ± 0.013
21	UAGUGACAGACCUUCUGAGAGAGAUUUUGA	0.000539 ± 0.016
22	UAGUGACAGUCCUUCUCUGAGUGAAUAACA	0.000155 ± 0.016
23	UAGUGACUCACCUUCUCUGAGUGAUUUUGA	0.000532 ± 0.016

# Continuation:

row,Sequence,pre-steady-state target cleavage rate
1,UAGUGACAGUGGUUCUCUGAGAGACUAACA,0.000316 ± 0.0089
2,UAGUGACUCACCUUGUCUGAGAGAUUUUGA,0.000692 ± 0.022
3,UAGUGACAGUCCUUCUCUGACUCAUUAUGA,0.00021 ± 0.01
4,UAGUGACAGUCCUUCUCUGAGAGAAUUACA,0.000434 ± 0.018
5,UAGUGACAGUCGUUCUCUGAGAGAUUAUGA,0.00102 ± 0.0076
6,UAGUGACUCAGCUUCUCUGAGAGAUUUUGA,0.000781 ± 0.0093
7,UAGUGACAGUCCUUCUGUGAGACAUUAACA,0.00233 ± 0.0027
8,UAGUGACAGUGGAACUCUGAGAGAUAUAACA,0.000112 ± 0.065
9,UAGUGACAGUGCUUCUCUGACAGAUUAACA,0.00306 ± 0.0034
10,UAGUGACACAGCUUCUCUGAGAGAUAUUGA,0.00045 ± 0.015
11,UAGUGACAGUCCUUGUCUGAGUGAUUAACA,0.00245 ± 0.0033
12,UAGUGACAGUGGAACACUGAGACAUUAACA,< 0.0001
13,UAGUCUGUCACCUUCUCUGAGUCAUUAACA,0.00172 ± 0.0036
14,UAGUGUGUCACCUUCUCUCUGAGAUUAUGA,0.00157 ± 0.0072
15,UAGUCUGUCACCAUCUCUGACAGAUUAACA,0.00219 ± 0.0049
16,UAGUGACUCACCUUCUCUGAGAGCUUAACA,0.156 ± 0.022
17,UAGUGUGUCACCUUCUCGGAGAGAUUAACA,0.153 ± 0.017
18,UAGUGACAGACCUUCUCUGAGUCUUUAUGA,0.000359 ± 0.031
19,UAGUGUGUCACCUUGACUGAGAGAUUAAGA,0.000821 ± 0.013
20,UAGUGUGUCACCUUCUGUGAGAGAUAUUGA,0.00247 ± 0.0059
21,UAGUGACACACCUUCUCUGAGUGAUAAACA,0.000894 ± 0.011
22,UAGUGACAGACCUACUCAGAGAGAUUAACA,0.00424 ± 0.0043
23,UAGUGACAGUGGAAGUCUGAGAGAGUAACA,0.000103 ± 0.045
24,UAGUGACAGACCAUCUCUGAGAGAUAAACA,0.00361 ± 0.0041

row,Sequence,pre-steady-state target cleavage rate
1,UAGUGACAGUCCUUCUCUGAGAGUUUAUGA,0.000175 ± 0.042
2,UAGUCUGUCUGGUUCUCUGAGAGAUUAUGA,0.00125 ± 0.0042
3,UAGUGAGUGACCUUCUCUGAGAGAUUAACA,0.157 ± 0.0097
4,UAGUGACAGACCUUCAGAGAGAGAUUAUGA,0.000511 ± 0.022
5,UAGUCUGUCACCUUCUCUGAGAGAUUAAUCA,0.258 ± 0.041
6,UAGUGUGUCACCUUCUCUCUGAGAUUAAGA,0.00143 ± 0.0099
7,UAGUGAGUCACCUUCUUGAGAGAUUAACA,0.0386 ± 0.014
8,UAGUGACUCACCAUCUCUGAGUGAUUAACA,0.00224 ± 0.0041
9,UAGUGACAGACCUUCUCUGAGACGAUUAACA,0.0176 ± 0.0081
10,UAGUGACAGACCUUGUCUGAGAGAUUAUGA,0.000569 ± 0.017
11,UAGUGACACACCAUCUCUGAGAGAUUUUGA,0.00176 ± 0.007
12,UAGUGAGUCUGCUUCUCUGAGAGAUAUUGA,0.000344 ± 0.013
13,UAGUGACAGUGCAUCUCUGAGAGAAUAACA,0.000417 ± 0.01
14,UAGUCUGUCACGAACUCUGAGAGAUUAUGA,0.000116 ± 0.023
15,UAGUGACAGUCCUUCUCUGUGAGAAUAACA,0.00171 ± 0.0043
16,UAGUGACAGUGGAAGAGUGACAGAAUAACA,0.000174 ± 0.029
17,UAGUGACAGACCUUCUCUGUGAGAUUAUGA,0.00185 ± 0.0054
18,UAGUGUGUCACCUUCUCUGACAGAUAAACA,0.00184 ± 0.0084
19,UAGUGACAGACCUUCUCUGUGUGAUUAACA,0.00168 ± 0.0072
20,UAGUCUGUCACCUUCUGUGACAGAUUAACA,0.0018 ± 0.0071
21,UAGUGACUCACCUUCUCUGAGUCAUAUUGA,0.000552 ± 0.012
22,UAGUGACAGACCUCUCUCUGAGAGAUUAACA,0.0375 ± 0.0076
23,UAGUGAGUCACCUUGACUGAGAGAUUAUGA,0.00088 ± 0.012
24,UAGUGACUCACCUUCAGUGAGAGAUUAAGA,0.00201 ± 0.0074
